The other results are listed elsewhere or left out.
Compound: Cc1cc(ccc1-c1ccccc1)C(=O)N1CCCN(CC1)C(=O)CCl [compound 10]
Assay: probe-labelled cysteine peptide fold change vs DMSO (competition) (log2 fold change); higher = less target engagement (more negative = stronger competition)
Details: THP-1, incubation time: 4 h
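Also: competitive profiling in live THP-1 cells: cysteine peptides tagged with an iodoacetamide desthiobiotin (IA-DTB) probe, intensity after compound treatment relative to DMSO-treated cells.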

Amino acid sequences for entries named in this document (tags omitted). A change or cut given only in a name is not applied to a line headed by its entry.
UniProt Q9BSL1: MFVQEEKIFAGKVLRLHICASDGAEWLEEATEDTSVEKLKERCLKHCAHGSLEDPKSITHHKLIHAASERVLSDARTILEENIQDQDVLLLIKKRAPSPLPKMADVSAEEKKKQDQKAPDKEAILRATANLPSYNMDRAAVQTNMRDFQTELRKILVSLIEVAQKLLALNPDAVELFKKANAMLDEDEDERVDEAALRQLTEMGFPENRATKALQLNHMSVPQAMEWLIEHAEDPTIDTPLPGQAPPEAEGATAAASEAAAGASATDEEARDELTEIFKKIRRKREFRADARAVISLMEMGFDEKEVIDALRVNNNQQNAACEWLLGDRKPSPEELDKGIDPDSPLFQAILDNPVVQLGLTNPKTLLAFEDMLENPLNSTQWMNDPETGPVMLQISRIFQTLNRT
UniProt Q7Z6J8: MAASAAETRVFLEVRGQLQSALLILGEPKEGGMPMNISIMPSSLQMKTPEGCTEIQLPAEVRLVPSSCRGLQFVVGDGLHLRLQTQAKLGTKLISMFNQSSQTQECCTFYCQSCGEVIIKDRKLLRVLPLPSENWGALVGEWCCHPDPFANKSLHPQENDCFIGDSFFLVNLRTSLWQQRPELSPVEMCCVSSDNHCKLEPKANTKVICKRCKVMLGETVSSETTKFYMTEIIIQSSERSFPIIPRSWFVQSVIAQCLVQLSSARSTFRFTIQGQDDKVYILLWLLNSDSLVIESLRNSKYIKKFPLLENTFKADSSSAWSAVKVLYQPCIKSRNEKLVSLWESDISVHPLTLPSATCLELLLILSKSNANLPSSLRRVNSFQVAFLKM
UniProt P29597: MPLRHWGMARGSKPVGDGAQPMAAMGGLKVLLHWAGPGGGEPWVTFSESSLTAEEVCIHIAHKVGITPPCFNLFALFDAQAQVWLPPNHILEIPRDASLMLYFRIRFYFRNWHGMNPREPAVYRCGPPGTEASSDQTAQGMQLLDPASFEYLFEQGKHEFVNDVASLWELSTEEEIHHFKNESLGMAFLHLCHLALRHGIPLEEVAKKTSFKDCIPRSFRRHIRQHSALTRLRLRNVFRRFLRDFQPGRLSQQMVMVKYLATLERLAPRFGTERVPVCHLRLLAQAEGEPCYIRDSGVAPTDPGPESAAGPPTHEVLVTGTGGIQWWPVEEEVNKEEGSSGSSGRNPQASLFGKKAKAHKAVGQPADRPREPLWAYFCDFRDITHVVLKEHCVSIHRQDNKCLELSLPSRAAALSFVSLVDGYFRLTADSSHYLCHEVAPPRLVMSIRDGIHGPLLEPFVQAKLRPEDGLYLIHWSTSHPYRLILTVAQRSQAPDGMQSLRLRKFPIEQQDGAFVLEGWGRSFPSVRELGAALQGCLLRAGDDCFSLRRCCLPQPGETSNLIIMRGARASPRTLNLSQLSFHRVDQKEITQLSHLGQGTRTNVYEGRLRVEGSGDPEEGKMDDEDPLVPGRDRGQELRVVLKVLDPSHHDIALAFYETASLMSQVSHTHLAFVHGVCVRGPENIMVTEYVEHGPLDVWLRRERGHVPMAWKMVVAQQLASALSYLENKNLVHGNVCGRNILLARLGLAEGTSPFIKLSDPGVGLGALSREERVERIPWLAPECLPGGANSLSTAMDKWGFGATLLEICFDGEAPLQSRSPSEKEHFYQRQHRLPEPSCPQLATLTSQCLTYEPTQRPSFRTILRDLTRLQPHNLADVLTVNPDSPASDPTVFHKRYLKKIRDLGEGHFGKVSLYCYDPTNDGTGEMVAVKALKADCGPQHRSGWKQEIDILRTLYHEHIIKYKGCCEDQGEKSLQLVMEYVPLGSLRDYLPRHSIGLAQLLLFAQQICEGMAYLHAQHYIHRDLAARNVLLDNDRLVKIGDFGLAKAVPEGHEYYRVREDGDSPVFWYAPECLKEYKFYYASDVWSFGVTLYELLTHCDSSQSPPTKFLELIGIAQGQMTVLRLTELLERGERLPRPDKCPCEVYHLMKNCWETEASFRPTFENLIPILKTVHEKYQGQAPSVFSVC
UniProt Q9BZF9: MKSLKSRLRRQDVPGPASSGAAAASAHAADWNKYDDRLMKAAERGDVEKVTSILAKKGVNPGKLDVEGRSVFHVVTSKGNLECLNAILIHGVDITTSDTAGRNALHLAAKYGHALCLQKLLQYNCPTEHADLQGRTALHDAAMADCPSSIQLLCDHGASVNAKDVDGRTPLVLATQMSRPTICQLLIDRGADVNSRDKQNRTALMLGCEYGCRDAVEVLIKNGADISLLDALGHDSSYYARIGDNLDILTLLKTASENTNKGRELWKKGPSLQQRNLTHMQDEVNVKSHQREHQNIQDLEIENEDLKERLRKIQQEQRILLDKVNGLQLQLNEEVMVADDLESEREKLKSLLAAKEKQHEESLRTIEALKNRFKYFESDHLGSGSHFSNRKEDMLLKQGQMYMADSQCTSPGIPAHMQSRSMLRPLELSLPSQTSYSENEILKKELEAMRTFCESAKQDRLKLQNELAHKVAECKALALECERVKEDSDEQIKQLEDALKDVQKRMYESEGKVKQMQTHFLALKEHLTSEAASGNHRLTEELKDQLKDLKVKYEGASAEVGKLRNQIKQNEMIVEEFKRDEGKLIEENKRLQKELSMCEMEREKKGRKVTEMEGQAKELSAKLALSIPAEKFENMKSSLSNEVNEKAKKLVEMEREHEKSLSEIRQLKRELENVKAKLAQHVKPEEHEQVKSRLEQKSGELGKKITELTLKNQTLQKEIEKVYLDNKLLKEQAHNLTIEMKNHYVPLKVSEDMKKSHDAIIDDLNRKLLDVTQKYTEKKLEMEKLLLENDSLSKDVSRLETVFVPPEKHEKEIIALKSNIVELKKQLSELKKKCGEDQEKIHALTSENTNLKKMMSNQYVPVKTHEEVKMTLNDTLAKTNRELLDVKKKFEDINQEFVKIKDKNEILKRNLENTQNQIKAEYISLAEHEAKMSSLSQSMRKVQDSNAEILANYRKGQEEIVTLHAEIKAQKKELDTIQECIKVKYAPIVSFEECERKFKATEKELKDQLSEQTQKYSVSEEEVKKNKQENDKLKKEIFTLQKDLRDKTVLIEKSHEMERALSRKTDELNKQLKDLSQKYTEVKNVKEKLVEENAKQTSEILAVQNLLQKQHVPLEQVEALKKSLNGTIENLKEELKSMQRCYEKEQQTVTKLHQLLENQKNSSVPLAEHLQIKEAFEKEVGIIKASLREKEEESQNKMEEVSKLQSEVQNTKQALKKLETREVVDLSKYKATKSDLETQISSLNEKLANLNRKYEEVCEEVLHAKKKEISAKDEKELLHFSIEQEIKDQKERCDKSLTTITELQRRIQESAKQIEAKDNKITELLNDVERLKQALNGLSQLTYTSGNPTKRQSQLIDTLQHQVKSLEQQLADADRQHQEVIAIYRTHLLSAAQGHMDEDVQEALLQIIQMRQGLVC
UniProt Q8WVY7: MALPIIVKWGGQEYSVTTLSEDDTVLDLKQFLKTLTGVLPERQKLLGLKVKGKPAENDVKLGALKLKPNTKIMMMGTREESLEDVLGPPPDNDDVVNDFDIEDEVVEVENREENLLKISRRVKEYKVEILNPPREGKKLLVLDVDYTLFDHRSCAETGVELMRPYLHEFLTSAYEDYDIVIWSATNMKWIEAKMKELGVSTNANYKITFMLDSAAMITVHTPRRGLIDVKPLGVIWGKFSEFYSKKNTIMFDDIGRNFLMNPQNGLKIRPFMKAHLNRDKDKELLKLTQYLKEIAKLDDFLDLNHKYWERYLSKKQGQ
UniProt P41226: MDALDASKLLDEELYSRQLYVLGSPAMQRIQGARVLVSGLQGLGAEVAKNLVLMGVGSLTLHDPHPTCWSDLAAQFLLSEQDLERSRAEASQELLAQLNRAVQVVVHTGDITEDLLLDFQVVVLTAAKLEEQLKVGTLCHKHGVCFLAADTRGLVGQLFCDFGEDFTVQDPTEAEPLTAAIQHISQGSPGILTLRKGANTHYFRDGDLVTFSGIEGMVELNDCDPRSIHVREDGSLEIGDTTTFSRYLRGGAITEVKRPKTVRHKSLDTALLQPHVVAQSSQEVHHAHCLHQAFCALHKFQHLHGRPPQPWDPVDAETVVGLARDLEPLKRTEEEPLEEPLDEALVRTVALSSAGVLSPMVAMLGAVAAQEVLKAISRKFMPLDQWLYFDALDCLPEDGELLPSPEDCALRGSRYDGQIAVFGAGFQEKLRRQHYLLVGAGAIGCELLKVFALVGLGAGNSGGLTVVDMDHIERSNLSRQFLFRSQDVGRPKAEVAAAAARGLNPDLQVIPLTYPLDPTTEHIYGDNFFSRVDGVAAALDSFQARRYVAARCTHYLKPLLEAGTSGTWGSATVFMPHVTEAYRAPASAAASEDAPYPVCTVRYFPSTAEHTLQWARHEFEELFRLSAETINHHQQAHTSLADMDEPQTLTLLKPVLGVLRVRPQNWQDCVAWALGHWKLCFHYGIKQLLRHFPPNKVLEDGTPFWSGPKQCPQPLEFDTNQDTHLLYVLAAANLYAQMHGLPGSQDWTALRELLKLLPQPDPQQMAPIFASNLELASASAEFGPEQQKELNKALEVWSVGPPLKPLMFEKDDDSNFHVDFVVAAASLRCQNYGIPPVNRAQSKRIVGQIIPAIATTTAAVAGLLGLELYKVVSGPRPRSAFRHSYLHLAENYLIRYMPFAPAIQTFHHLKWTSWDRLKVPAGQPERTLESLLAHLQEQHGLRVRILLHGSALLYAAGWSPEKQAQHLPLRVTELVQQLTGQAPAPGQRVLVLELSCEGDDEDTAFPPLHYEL
UniProt Q9NNW7, whole entry, looked up: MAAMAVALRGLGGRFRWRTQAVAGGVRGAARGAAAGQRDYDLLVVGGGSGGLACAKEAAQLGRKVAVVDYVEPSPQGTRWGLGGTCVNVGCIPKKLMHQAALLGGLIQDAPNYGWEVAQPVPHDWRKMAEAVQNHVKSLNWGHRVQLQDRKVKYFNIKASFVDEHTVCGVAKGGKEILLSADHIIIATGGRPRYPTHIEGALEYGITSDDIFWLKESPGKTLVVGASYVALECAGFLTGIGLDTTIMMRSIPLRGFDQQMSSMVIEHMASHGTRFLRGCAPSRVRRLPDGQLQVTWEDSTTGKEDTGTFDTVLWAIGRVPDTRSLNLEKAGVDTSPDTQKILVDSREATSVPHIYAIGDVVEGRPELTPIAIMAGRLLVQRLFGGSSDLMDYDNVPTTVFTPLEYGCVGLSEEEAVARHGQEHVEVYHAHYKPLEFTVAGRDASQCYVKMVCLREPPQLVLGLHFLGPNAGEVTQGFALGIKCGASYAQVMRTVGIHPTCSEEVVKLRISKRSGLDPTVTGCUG
UniProt Q8TBC4: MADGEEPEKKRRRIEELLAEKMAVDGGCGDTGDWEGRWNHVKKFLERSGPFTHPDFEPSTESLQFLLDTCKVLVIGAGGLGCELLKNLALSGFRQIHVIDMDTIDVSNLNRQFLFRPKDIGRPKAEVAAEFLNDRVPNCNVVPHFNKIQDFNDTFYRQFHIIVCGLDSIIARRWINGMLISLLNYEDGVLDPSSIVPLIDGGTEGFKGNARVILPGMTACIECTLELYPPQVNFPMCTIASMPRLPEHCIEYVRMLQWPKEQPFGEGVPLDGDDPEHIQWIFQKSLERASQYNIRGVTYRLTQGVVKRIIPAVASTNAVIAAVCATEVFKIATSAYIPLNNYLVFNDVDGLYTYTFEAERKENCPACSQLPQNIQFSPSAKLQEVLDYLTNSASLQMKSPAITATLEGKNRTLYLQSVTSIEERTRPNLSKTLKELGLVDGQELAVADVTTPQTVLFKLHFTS

| Target | probe-labelled cysteine peptide fold change (10 µM) | probe-labelled cysteine peptide fold change (50 µM) |
| --- | --- | --- |
| TYMP_P19971_293_CVGHALEVEEALLCMDGAGPPDLR (UniProt P19971) | 0.385 | 0.197 |
| UBA1_P22314_711_SLVLQRPQTWADCVTWACHHWHTQYSNNIR (UniProt P22314) | -0.12 | 0.238 |
| UBA1_P22314_748_RCPHPLTFDVNNPLHLDYVMAAANLFAQTYGLTGSQDR (UniProt P22314) | -0.0255 | 0.114 |
| UBAC1_Q9BSL1_19_LHICASDGAEWLEEATEDTSVEK (UniProt Q9BSL1) | -0.11 | -0.621 |
| UBE3D_Q7Z6J8_52_TPEGCTEIQLPAEVR (UniProt Q7Z6J8) | 0.0793 | 0.147 |
| UBASH3B_Q8TF42_468_LVGEALLESNTIIDHVYCSPSLR (UniProt Q8TF42) | 0.035 | 0.0786 |
| TYK2_P29597_1140_CPCEVYHLMK (UniProt P29597) | -0.383 | -0.903 |
| UACA_Q9BZF9_980_ELDTIQECIK (UniProt Q9BZF9) | -0.247 | -0.59 |
| UBLCP1_Q8WVY7_154_SCAETGVELMR (UniProt Q8WVY7) | 0.163 | 0.308 |
| UBA7_P41226_829_CQNYGIPPVNR (UniProt P41226) | -0.03 | 0.153 |
| TXNRD2_Q9NNW7_500_TVGIHPTCSEEVVK (UniProt Q9NNW7) | 0.0778 | 0.134 |
| UBA3_Q8TBC4_82_VLVIGAGGLGCELLK (UniProt Q8TBC4) | 0.0482 | -0.259 |

Random excerpt: 2 records from the list.

| Target | probe-labelled cysteine peptide fold change (10 µM) | probe-labelled cysteine peptide fold change (50 µM) |
| --- | --- | --- |
| UBA1_P22314_748_RCPHPLTFDVNNPLHLDYVMAAANLFAQTYGLTGSQDR (UniProt P22314) | -0.0255 | 0.114 |
| UBLCP1_Q8WVY7_154_SCAETGVELMR (UniProt Q8WVY7) | 0.163 | 0.308 |

From the supplement of paper PMC12067093, “Discovery and optimisation of a covalent ligand for TRIM25 and its application to targeted protein ubiquitination” (Chemical Science, 2025)
